In PubChem BioAssay AID1347076 (National Center for Advancing Translational Sciences (NCATS), 2019):
Hit rate of the full screen: of about 400,000 compounds, about 13,000 (3.2%) were called active. Inconclusive results, whose numbers are uncertain, are shown with a selection of clear calls. Calls come from the whole dose curve; as a rule, active = well fitted cell-killing curve with a large enough effect; inconclusive = small, poorly fitted or top-dose-only effect, or effect the other way; inactive = flat fitted curve, though single readings scatter. Where the call is inconclusive, the potency comes from a doubtful curve fit.

Assay: qHTS assay for MDR1-selective chemotherapeutics: Primary screen using the drug-selected MDR subline cells KB-V1; note: nearly all actives have a fitted effect of over 60% in size
Settings: KB-V1 MDR cells viability, CellTiter-Glo, 72 h; series mostly up to 46.1 µM
Method in brief: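 Readout: CellTiter-Glo luminescence, 10 min after addition. Cells: KB-V1 MDR subline, 72 h at 37 degrees C with compound. Analysis: corrected, normalized data fitted to concentration-effect curves.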
Potency is the fitted concentration of half-maximal effect.

SMILES	Potency
CCCCN(C)C1=CC2=CC(=C(C#N)C#N)CCC2CC1 (stereo not drawn)	inconclusive: 18.4 µM [cytotoxic, single point]
COc1ccc(C(=O)Nc2ccc(C)cn2)c(OC)c1	active: 16.4 µM
O=C(CS(=O)(=O)c1c[nH]c2ccccc12)Nc1ccc2c(c1)OCCO2	inactive
Cc1cc(C)cc(S(=O)(=O)c2cn(C)c3cc(N4CCN(C)CC4)c(F)cc3c2=O)c1	inconclusive: 29.1 µM [rising, single point]
CCc1cccc(CC)c1NC(=S)NCCc1ccc(O)c(O)c1	inconclusive: 16.4 µM [rising, single point]
CCOc1ccccc1C1CC(=O)NC2=C1C(=O)CCC2 (stereo not drawn)	inconclusive: 18.4 µM [cytotoxic, single point]
C/C(N)=C(/C#N)C(=O)CSc1nc(-c2ccccc2)c(-c2ccccc2)o1	inconclusive: 3.26 µM [cytotoxic, partial curve, poor fit]
CCCc1cc(=O)n2[nH]c(C)c(-c3ccccc3)c2n1	inconclusive: 29.1 µM [cytotoxic, single point]
COC(=O)C1=C(C(=O)OC)SC(=C2C(=S)C(C)(C)N(C(=O)CC(C)C)c3ccccc32)S1	inconclusive: 23.1 µM [cytotoxic, single point]
O=[N+]([O-])c1cc2ncccc2c2ncccc12	inconclusive: 13 µM [cytotoxic, partial curve]
CCCCn1c(N)c(N(CC(C)C)C(=O)C2CCN(C(=O)c3ccc(F)cc3)CC2)c(=O)[nH]c1=O	inconclusive: 29.1 µM [rising, single point]
Cc1n[nH]c(C)c1CCc1nc2c3ccccc3nc(SCC(=O)Nc3ccc(F)cc3)n2n1	inactive
COCCCNC(=O)C[C@@H]1C[C@@]2(C(=O)OC)CC(C)(C)CC=C2N(Cc2ccc3c(c2)OCO3)C1=O	inconclusive: 20.6 µM [cytotoxic, partial curve, poor fit]
CCOC(=O)[C@]12CCC=C1N(CCC1=CCCCC1)C(=O)[C@H](CC(=O)NCCc1ccccc1OC)C2	inconclusive: 13 µM [cytotoxic, partial curve, poor fit]
COc1ccc(OC)c(NS(=O)(=O)c2c(C(=O)N3CCCCCC3)c(C)n(C)c2C)c1	inactive
O=S(=O)(NNc1ncc(C(F)(F)F)cc1Cl)c1ccccc1	inactive
COc1ccc(Nc2nc(Nc3ccc(OC)cc3)nc(-n3[nH]c(=O)c(C)c3C)n2)cc1	active: 1.16 µM
COC(=O)Cc1c(C)c2ccc(OCC(=O)NC3CCS(=O)(=O)C3)cc2oc1=O (stereo not drawn)	inconclusive: 29.1 µM [rising, single point]

Copied from the listing, two compounds:
SMILES	Potency
CCc1cccc(CC)c1NC(=S)NCCc1ccc(O)c(O)c1	inconclusive: 16.4 µM [rising, single point]
CCOc1ccccc1C1CC(=O)NC2=C1C(=O)CCC2 (stereo not drawn)	inconclusive: 18.4 µM [cytotoxic, single point]
